Assay results reported in PMC6814714.
Results are given in words; binding and its absence hold for the method and conditions named. Some entries that bind do so weakly or less than the wild type.

By UniProt entry, the sequences of proteins in these tests, tags left out. Where a name states a change or a piece, a line headed by the entry shows the natural chain unless it says otherwise. Residues count along the entry.
UniProt P26231: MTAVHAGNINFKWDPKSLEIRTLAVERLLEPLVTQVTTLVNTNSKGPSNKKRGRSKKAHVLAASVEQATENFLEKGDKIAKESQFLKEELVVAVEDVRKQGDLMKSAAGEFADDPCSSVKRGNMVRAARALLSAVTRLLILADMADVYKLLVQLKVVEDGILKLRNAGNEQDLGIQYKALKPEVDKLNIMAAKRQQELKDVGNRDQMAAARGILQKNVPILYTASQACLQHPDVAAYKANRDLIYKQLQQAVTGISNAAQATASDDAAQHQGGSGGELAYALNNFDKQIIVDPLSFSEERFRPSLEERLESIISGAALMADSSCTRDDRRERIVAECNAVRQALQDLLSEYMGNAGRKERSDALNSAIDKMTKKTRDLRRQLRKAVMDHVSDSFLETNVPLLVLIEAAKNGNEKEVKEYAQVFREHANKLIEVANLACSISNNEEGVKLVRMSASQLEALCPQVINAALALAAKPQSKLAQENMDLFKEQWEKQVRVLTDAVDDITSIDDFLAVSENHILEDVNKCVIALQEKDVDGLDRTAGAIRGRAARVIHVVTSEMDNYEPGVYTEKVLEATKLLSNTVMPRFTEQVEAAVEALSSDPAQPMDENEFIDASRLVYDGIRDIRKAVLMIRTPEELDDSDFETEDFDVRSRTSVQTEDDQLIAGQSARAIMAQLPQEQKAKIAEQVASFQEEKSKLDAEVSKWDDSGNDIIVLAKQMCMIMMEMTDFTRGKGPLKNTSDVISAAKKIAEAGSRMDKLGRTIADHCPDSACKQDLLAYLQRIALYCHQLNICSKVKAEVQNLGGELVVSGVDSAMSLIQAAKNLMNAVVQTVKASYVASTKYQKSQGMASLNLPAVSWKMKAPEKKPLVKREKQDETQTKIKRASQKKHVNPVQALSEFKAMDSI
UniProt Q02248: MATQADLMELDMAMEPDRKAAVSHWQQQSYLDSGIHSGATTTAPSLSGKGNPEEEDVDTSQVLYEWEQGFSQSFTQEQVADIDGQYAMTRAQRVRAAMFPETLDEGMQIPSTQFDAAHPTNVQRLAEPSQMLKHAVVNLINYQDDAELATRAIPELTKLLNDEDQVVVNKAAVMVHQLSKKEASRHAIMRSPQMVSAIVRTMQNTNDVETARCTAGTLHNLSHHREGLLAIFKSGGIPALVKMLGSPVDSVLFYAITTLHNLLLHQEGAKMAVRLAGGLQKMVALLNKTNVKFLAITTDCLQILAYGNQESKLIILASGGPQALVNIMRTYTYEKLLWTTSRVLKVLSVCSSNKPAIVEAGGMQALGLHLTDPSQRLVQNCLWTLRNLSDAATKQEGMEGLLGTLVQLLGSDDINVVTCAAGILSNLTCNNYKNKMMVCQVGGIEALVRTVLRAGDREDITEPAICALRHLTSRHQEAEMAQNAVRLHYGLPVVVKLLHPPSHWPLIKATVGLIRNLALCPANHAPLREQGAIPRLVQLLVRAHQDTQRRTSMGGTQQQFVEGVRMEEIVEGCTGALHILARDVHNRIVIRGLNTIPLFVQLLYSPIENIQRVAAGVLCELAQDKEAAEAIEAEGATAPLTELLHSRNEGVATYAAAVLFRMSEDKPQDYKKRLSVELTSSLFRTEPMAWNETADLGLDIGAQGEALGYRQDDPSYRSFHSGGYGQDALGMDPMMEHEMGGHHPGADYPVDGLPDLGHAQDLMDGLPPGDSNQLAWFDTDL
UniProt P09803, residues 734-884: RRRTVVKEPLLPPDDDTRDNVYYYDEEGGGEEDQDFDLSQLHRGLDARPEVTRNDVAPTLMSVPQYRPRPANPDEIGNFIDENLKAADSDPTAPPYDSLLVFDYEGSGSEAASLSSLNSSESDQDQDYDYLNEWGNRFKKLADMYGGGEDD

Columns and labels:
Assay in all cases: SEC; complexes formed by mixing the purified components and purified on S200 before cysteine labelling; both purified
[1] = biological target: His8-tagged αE-catenin R551A (full-length) (murine) (UniProt P26231)
[2] = biological target: His8-tagged αE-catenin wild type (full-length) (murine) (UniProt P26231)
[3] = biological target: β-catenin (murine) (UniProt Q02248)

binding [1]	binding [2]	binding [3]	Substance
binds	binds		β-catenin (from UniProt Q02248 1-781)
		binds	cytoplasmic domain of E-cadherin (from UniProt P09803 734-884) (domain or fragment)
